In the supplement of paper PMC10849652:
Some of the results follow.

Amino acid sequences for entries named in this document (tags omitted). A change or cut given only in a name is not applied to a line headed by its entry.
UniProt Q8TBY9: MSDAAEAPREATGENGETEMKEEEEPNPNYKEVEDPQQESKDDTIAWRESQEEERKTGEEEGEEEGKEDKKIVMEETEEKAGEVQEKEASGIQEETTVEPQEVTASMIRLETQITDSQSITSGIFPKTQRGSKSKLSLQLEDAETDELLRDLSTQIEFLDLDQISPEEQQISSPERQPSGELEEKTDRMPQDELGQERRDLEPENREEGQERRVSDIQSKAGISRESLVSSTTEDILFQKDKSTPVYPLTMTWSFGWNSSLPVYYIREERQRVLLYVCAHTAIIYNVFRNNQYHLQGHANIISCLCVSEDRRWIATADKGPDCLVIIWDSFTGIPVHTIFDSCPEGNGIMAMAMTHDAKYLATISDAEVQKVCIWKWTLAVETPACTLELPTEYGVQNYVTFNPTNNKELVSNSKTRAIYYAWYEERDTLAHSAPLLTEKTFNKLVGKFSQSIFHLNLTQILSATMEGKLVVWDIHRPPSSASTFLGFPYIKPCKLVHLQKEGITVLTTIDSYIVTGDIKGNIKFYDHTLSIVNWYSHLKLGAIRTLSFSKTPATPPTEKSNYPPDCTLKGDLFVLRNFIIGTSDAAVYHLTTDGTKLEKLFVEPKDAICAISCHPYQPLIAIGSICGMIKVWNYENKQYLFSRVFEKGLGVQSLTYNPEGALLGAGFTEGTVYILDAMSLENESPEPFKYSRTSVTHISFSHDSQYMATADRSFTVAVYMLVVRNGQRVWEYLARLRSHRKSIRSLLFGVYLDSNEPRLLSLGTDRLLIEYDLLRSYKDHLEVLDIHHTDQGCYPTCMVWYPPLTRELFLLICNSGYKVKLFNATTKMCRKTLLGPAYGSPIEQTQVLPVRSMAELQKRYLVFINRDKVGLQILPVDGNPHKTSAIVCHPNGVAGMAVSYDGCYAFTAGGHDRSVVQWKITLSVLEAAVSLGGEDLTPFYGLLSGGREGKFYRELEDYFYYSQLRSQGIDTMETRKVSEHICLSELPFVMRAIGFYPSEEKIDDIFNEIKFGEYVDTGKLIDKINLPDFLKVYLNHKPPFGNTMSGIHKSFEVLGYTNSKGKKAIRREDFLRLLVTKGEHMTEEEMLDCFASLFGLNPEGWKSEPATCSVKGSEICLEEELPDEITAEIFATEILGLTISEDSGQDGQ
UniProt P30291: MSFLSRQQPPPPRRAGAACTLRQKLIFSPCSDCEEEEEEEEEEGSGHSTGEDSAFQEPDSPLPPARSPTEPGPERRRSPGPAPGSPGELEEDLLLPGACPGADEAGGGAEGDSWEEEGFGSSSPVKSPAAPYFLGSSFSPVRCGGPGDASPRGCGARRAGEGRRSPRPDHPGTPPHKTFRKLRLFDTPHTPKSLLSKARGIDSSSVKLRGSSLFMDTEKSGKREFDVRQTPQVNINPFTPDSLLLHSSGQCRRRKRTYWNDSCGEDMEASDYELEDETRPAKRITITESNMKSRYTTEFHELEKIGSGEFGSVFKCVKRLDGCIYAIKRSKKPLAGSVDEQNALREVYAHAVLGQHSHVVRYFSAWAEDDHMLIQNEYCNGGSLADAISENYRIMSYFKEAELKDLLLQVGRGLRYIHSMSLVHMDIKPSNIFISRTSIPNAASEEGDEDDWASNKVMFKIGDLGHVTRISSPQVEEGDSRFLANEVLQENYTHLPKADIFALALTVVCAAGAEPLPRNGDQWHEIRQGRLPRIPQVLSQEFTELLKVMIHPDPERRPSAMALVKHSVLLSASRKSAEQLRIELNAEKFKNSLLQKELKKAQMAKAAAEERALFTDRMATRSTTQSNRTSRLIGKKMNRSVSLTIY
UniProt Q86Y07: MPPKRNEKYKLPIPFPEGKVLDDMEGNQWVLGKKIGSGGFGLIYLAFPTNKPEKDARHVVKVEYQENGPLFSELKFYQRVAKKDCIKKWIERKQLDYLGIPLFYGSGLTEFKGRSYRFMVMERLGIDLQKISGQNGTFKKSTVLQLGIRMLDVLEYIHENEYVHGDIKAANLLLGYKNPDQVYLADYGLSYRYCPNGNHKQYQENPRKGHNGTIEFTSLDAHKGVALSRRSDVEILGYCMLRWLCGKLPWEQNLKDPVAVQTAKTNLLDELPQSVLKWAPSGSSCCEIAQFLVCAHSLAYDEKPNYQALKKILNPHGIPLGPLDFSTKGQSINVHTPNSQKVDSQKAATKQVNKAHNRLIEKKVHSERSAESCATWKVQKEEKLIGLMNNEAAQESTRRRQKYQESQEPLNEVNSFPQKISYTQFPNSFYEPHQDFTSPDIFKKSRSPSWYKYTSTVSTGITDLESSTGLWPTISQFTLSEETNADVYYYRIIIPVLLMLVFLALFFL
UniProt Q9HD64: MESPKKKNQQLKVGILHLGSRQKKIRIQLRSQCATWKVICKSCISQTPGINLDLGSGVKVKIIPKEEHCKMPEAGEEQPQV
UniProt Q8TF74: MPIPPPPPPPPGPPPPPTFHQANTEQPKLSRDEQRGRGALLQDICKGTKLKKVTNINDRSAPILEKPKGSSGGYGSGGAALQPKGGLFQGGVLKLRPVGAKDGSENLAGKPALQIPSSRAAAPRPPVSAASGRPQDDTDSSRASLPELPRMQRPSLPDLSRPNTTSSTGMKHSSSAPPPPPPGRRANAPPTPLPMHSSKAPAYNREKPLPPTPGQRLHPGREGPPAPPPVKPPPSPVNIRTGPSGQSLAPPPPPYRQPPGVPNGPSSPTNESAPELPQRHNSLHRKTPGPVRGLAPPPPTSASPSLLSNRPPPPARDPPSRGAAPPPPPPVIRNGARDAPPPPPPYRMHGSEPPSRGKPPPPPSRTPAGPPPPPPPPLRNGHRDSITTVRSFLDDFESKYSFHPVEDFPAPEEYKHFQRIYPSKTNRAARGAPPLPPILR
UniProt Q92558: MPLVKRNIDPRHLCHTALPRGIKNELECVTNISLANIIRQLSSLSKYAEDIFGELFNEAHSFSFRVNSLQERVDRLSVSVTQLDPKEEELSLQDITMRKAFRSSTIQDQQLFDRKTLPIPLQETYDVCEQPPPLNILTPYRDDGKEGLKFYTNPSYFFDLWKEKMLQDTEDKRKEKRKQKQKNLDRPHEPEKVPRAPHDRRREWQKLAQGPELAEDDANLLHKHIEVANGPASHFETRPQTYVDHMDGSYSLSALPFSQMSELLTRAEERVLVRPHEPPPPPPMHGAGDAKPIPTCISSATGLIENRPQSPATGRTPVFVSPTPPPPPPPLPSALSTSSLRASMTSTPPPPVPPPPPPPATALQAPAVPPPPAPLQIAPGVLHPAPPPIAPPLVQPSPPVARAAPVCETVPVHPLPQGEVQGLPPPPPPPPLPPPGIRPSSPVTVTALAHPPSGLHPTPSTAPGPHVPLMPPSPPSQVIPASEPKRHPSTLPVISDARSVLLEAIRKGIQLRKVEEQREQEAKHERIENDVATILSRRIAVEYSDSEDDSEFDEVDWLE
UniProt P51811: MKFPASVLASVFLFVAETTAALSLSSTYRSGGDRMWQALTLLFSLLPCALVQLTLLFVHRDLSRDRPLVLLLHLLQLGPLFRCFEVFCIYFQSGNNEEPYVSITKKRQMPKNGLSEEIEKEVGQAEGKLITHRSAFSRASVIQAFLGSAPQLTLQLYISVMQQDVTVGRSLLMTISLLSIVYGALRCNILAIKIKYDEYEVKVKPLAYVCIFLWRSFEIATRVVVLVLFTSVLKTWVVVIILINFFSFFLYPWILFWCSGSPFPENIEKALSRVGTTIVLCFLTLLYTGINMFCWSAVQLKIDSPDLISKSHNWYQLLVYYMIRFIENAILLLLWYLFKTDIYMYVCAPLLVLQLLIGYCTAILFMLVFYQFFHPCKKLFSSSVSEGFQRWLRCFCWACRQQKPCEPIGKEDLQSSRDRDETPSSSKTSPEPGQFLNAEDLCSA
UniProt P42768: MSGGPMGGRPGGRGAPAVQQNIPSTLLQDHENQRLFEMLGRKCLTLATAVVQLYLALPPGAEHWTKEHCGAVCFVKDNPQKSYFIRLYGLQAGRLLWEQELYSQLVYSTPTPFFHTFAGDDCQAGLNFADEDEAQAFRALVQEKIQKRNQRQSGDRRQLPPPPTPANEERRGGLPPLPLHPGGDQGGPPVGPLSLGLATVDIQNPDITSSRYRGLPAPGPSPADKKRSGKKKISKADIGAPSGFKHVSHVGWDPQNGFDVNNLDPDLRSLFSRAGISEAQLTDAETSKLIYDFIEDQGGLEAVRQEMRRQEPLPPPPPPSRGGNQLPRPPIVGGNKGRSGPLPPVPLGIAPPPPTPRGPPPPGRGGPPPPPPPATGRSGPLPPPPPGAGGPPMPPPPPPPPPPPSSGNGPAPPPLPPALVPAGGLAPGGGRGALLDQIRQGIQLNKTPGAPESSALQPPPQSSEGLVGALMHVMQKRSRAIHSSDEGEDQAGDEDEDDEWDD
UniProt Q9H977: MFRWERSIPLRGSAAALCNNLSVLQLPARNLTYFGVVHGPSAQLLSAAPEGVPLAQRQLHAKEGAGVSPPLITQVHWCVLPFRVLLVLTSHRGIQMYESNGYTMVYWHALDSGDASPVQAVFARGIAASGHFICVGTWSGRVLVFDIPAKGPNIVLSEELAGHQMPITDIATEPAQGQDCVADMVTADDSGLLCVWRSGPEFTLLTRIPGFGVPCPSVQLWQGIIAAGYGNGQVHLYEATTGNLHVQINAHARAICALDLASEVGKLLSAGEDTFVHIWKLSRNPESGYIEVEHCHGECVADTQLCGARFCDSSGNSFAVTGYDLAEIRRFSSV
UniProt Q9H7M9, whole entry, looked up: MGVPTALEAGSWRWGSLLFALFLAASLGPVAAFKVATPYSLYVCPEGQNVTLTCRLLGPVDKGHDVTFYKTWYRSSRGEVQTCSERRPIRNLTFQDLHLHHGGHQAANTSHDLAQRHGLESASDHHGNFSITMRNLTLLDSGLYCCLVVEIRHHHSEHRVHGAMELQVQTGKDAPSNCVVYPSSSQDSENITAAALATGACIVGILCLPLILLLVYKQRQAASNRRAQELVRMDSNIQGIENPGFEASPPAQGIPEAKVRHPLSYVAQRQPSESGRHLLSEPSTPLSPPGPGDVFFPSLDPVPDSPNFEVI
UniProt Q96HA8: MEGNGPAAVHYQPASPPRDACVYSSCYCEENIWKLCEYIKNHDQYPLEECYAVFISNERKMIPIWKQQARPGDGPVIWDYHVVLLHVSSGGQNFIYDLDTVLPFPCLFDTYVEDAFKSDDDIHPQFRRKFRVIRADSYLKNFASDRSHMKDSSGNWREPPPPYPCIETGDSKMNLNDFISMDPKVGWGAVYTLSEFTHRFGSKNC
UniProt Q502W6: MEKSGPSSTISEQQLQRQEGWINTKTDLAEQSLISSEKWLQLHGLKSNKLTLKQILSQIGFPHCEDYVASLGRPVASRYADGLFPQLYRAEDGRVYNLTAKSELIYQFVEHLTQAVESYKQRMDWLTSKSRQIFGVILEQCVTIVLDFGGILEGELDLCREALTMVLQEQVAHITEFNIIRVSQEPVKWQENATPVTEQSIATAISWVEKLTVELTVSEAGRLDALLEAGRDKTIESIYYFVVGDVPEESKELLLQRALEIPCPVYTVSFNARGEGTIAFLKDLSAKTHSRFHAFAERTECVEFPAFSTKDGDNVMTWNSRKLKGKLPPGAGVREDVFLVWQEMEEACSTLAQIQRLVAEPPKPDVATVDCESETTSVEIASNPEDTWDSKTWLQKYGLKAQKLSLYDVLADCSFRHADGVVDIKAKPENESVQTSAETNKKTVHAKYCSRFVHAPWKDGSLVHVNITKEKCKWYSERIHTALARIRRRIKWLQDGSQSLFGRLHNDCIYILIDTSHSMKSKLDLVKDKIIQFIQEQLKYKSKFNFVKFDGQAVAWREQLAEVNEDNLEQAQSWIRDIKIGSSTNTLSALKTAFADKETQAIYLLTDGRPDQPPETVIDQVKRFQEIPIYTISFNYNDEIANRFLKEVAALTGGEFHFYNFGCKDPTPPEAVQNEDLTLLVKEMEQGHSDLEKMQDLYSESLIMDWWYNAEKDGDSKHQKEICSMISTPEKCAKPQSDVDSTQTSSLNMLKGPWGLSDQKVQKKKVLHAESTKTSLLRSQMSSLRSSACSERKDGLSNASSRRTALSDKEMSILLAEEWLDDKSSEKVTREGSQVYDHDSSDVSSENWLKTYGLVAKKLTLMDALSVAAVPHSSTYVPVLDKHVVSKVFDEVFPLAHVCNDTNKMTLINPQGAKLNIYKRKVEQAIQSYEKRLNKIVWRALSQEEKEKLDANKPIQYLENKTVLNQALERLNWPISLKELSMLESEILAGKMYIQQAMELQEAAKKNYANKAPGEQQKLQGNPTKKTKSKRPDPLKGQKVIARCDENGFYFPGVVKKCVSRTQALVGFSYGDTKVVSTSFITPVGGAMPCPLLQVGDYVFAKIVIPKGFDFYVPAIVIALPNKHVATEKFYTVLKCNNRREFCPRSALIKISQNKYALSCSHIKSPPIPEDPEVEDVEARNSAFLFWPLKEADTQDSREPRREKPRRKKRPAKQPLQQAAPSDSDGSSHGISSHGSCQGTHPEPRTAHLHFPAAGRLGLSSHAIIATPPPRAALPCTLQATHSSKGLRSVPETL

Experiments:
Assay in all cases: log2 fold change, soluble protein after heating vs DMSO (PISA); higher = thermal stabilisation; K562 lysate, 10 uM; active = over 0.2 and 3.5 SD of the protein, either way, in both replicates (recomputed)
Tubastatin A = compound: CN1CCc2c(c3ccccc3n2Cc2ccc(C(=O)NO)cc2)C1 [Tubastatin A]
Summary of the method: (§1)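 Quantification was by TMTpro 16plex LC-MS/MS with equalised channel sums, applied to the supernatant after 21,000xg for 90 min. Samples were crude K562 extract at 1 mg/mL protein in PBS pH 7.4 with 1 mM MgCl2, treated with 10 μM compound for 30 min, heated for 3 min across 48°C-58°C, pooled and brought to 0.5% NP-40 at 4°C. Values are log-two fold changes in thermal stability relative to solvent controls, from duplicates.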

[1] = compound: CNc1nc(-c2ccc3c(N)n[nH]c3c2)cc(N2C[C@@H](C(=O)NC3CCCCC3)CC[C@H]2C)n1
Summary of the method: as §1

encorafenib = compound: COC(=O)N[C@@H](C)CNc1nccc(-c2cn(C(C)C)nc2-c2cc(Cl)cc(NS(C)(=O)=O)c2F)n1 [encorafenib]
Summary of the method: as §1

[2] = compound: COC(=O)[C@H](CCSC)NC(=O)C1=C(C=C(C=C1)NC[C@H](CS)N)C2=CC=CC=C2
Summary of the method: as §1

alisertib = compound: COc1cc(Nc2ncc3c(n2)-c2ccc(Cl)cc2C(c2c(F)cccc2OC)=NC3)ccc1C(=O)O [alisertib]
Summary of the method: as §1

gefitinib = compound: COc1cc2ncnc(Nc3ccc(F)c(Cl)c3)c2cc1OCCCN1CCOCC1 [gefitinib]
Summary of the method: as §1

[3] = compound: CNC(=O)C1=CC=CC=C1NC2=NC(=NC=C2Cl)NC3=C(C=C(C=C3)N4CCOCC4)OC
Summary of the method: as §1

alvocidib = compound: CN1CC[C@H](c2c(O)cc(O)c3c(=O)cc(-c4ccccc4Cl)oc23)[C@H](O)C1 [alvocidib]
Summary of the method: as §1

[4] = compound: COc1cc2nc(-c3cc(F)ccc3O)nc(N[C@@H]3CNC[C@H]3C(C)(C)O)c2cc1OC
Summary of the method: as §1

defactinib = compound: CNC(=O)c1ccc(Nc2ncc(C(F)(F)F)c(NCc3nccnc3N(C)S(C)(=O)=O)n2)cc1 [defactinib]
Summary of the method: as §1

Target	log2 fold change (Tubastatin A)	log2 fold change [1]	log2 fold change (encorafenib)	log2 fold change [2]	log2 fold change (alisertib)	log2 fold change (gefitinib)	log2 fold change [3]	log2 fold change (alvocidib)	log2 fold change [4]	log2 fold change (defactinib)
WDR76 (UniProt Q9H967)	inactive: -0.093	inactive: 0.176	inactive: 0.002	inactive: 0.153	inactive: -0.082	inactive: -0.047				
WAC isoform 5 (UniProt Q9BTA9)	inactive: -0.119	inactive: -0.117					inactive: -0.359			
WIPI1 (UniProt Q5MNZ9)	inactive: 0.013	inactive: 0.099	inactive: -0.009	inactive: 0.029	inactive: -0.189	inactive: -0.017	inactive: 0.036	inactive: -0.046	inactive: 0.008	
WDR59 (UniProt Q6PJI9)	inactive: -0.098	inactive: -0.044	inactive: 0.004	inactive: 0.197	inactive: 0.028	inactive: -0.09	inactive: -0.027	inactive: -0.028	inactive: -0.008	inactive: 0.018
WDR66 (UniProt Q8TBY9)	inactive: 0.135									inactive: -0.016
WARS1 (UniProt G3V5U1)			inactive: 0.017	inactive: 0.158	inactive: -0.164	inactive: 0.172			inactive: -0.032	
WEE1 (UniProt P30291)	inactive: -0.194	inactive: -0.072	inactive: -0.035	inactive: 0.11	inactive: 0.018	inactive: 0.129	active: 0.498		inactive: 0.055	inactive: 0.145
VKORC1L1, A0A3B3ISV4	inactive: 0.026	inactive: 0.097	inactive: 0.026	inactive: 0.04	inactive: 0.041	inactive: -0.077	inactive: 0.015	inactive: -0.032	inactive: 0.011	inactive: 0.036
VLDLR (UniProt P98155)	inactive: 0.036						inactive: -0.094			
VPS35, A0A1W2PP10					inactive: -0.108	inactive: 0.186	inactive: 0.038	inactive: -0.216	inactive: 0.051	
WDR83 (UniProt Q9BRX9)	inactive: -0.009	inactive: -0.065			inactive: -0.089	inactive: -0.004			inactive: -0.091	inactive: -0.05
VRK2 (UniProt Q86Y07)	inactive: -0.017	inactive: -0.044	inactive: -0.068	inactive: 0.032	inactive: -0.033	inactive: -0.08	inactive: 0.067	active: 0.503	inactive: 0.008	inactive: 0.156
WDR34 (UniProt Q96EX3)	inactive: -0.084	inactive: -0.02	inactive: -0.003	inactive: 0.067	inactive: 0.042	inactive: 0.011	inactive: -0.009	inactive: 0.026		inactive: -0.002
WDR35 (UniProt Q9P2L0)	inactive: 0.031									
XAGE1A (UniProt Q9HD64)			inactive: 0.154	inactive: 0.004	inactive: -0.14	inactive: -0.039				inactive: 0.251
WDR19 (UniProt Q8NEZ3)					inactive: 0.09	inactive: -0.046		inactive: -0.028	inactive: 0.071	
WDR13, A0A087X091								inactive: 0.036		inactive: 0.088
WDHD1 (UniProt O75717)	inactive: -0.073	inactive: -0.011	inactive: -0.019	inactive: 0.098	inactive: -0.016	inactive: 0.015	inactive: 0.004	inactive: 0.042	inactive: -0.003	inactive: -0.002
WDR46, A0A0G2JJL1	inactive: 0.119	inactive: 0.048			inactive: -0.093	inactive: 0.212		inactive: 0.13	inactive: -0.044	inactive: 0.073

Some entries already given, reduced to log2 fold change (encorafenib), log2 fold change (Tubastatin A) and log2 fold change [1]:
Target | log2 fold change (encorafenib) | log2 fold change (Tubastatin A) | log2 fold change [1]
WDHD1 (UniProt O75717) | inactive: -0.019 | inactive: -0.073 | inactive: -0.011
WDR46, A0A0G2JJL1 |  | inactive: 0.119 | inactive: 0.048

Following part:

Target	log2 fold change (Tubastatin A)	log2 fold change [1]	log2 fold change (encorafenib)	log2 fold change [2]	log2 fold change (alisertib)	log2 fold change (gefitinib)	log2 fold change [3]	log2 fold change (alvocidib)	log2 fold change [4]	log2 fold change (defactinib)
WIPF2 (UniProt Q8TF74)	inactive: -0.018	inactive: -0.08	inactive: -0.032	inactive: -0.022	inactive: 0.076	inactive: 0.068	inactive: 0.002	inactive: -0.024	inactive: 0	inactive: -0.02
WASF1 (UniProt Q92558)	inactive: -0.002	inactive: -0.071	inactive: 0.054	inactive: 0.038	inactive: -0.072	inactive: -0.075	inactive: -0.026	inactive: -0.038	inactive: -0.024	inactive: 0.012
WWOX (UniProt Q9NZC7)	inactive: 0.056	inactive: -0.081						inactive: 0.159		inactive: -0.148
WDFY2 (UniProt Q96P53)		inactive: 0.1					inactive: 0.076			
XIRP2 isoform 8 (UniProt A4UGR9)	inactive: -0.025				inactive: 0.095	inactive: 0.152			inactive: -0.056	
WSB1 (UniProt Q9Y6I7)	inactive: -0.014	inactive: 0.12						inactive: 0.184		
XK (UniProt P51811)	inactive: -0.008	inactive: 0.145	inactive: -0.08	inactive: 0.005	inactive: -0.161	inactive: 0.082	inactive: -0.048	inactive: -0.006	inactive: 0	
WARS1 (UniProt G3V456)									inactive: -0.045	
WAS (UniProt P42768)		inactive: 0.365	inactive: 0.004	inactive: 0.08	inactive: -0.041	inactive: 0.215	inactive: 0.032	inactive: -0.028		
WDR54 isoform 4 (UniProt Q9H977)		inactive: -0.019	inactive: 0.08	inactive: 0.109				inactive: 0.033		inactive: -0.071
VTI1B (UniProt Q9UEU0)	inactive: -0.019	inactive: 0.052	inactive: 0.058	inactive: 0.017	inactive: -0.087	inactive: 0.009	inactive: 0.032	inactive: -0.05	inactive: 0.021	
VSIR (UniProt Q9H7M9)	inactive: -0.159	inactive: -0.019	inactive: -0.002	inactive: -0.02			inactive: -0.042	inactive: 0.032	inactive: 0.007	inactive: 0.109
WDR55 (UniProt Q9H6Y2)	inactive: -0.033	inactive: 0.018	inactive: -0.002	inactive: 0.074	inactive: 0.029	inactive: 0.075	inactive: 0.011	inactive: -0.005	inactive: 0.028	inactive: -0.037
XPA (UniProt P23025)	inactive: 0.043	inactive: 0.075	inactive: 0.006	inactive: -0.067	inactive: 0.01	inactive: -0.07	inactive: 0.017	inactive: -0.016	inactive: -0.099	inactive: 0.031
XBP1 isoform 2 (UniProt P17861)	inactive: -0.513						inactive: 0.112			
WDYHV1 (UniProt Q96HA8)	inactive: -0.103	inactive: -0.063	inactive: -0.025	inactive: 0.22	inactive: -0.086	inactive: 0.095	inactive: 0.095		inactive: -0.015	inactive: -0.014
VPS29 (UniProt Q9UBQ0)	inactive: 0.036	inactive: 0.138					inactive: -0.027		inactive: -0.093	inactive: 0.065
VWA3B isoform 6 (UniProt Q502W6)	inactive: -0.032	inactive: 0.034	inactive: 0.112	inactive: -0.158	inactive: 0.025	inactive: 0.035	inactive: -0.062	inactive: -0.118	inactive: 0.057	
WARS1 (UniProt G3V277)			inactive: -0.103	inactive: -0.011						inactive: -0.168
